These are yes or no findings as the source states them, for the method shown. Binding seen in cells or lysates may run through a third protein. Here binding means that the protein was enriched with, or labelled near, the bait; the list need not be complete. For some of these results: No binding means not detected with the bait.
B1: UBASH3A (protein, UniProt Q3V3E1 1-624)
chain: MAAGETQLYAKVSNKLKGRSTPSLLDPLLAMGFPTHTALKALAATGRKTAEAAADWLHGHCNDPSLDDPIPQEYALFLCPTGPLLEKLQEFWRESRRQCAKNRAHEVFPHVTLCDFFTCEDQKVECLYEALRRAGDRILGSFPTLVPLVLHSSISYLGFFINDSPADAIREFAMAFATEAAVLADCTIKPCTKQLHLTLAHKFYPHHQRTLEQLAKAIQPSHSCQWTAALYSRDMRFVHYQTLKALFQYKPQNADELMLSAGDYIFVDPTQQEEASEGWAIGISHRTGCRGFLPENYTERANEADTWVKHRTYTFNLAMDLNSRKDFEASCRGNGEPHTPSMSKSVSSIQALQATISRRGILVVRHGERVDQVFGKSWLQQCTTADGKYYRPDLNFPRSLPRRSNGIKDFENDPPLSSCGIFQARLAGEALLDSGVRVTAVFASPALRCVQTAKHILEELKLEKKLKIRVEPGIFEWMKWEASKATLTFLTLEELKEANFNVDLDYRPALPRCSLMPAESYDQYVERCAVSMGQIINTCPQDMGITLIVSHSSALDSCTRPLLGLPPRECGDFAQLVRKIPSLGMCFCEENREDGKWDLVNPPVKTLTHGANSVFNWRNWISSN
B2: GRAP2 (protein, UniProt O89100 1-322)
chain: MEATAKFDFMASGEDELSFRTGDILKILSNQEEWLKAELGSQEGYVPKNFIDIEFPEWFHEGLSRHQAENLLMGKDIGFFIIRASQSSPGDFSISVRHEDDVQHFKVMRDTKGNYFLWTEKFPSLNKLVDYYRTTSISKQKQVFLRDGTQDQGHRGNSLDRRSQGGPHPSGTVGEEIRPSVNRKLSDHLPLGPQQFHPHQQPSPQFTPGPQPPQQQRYLQHFHQDRRGGSLDINDGHCGLGSEVNATLMHRRHTDPVQLQAAGRVRWARALYDFEALEEDELGFRSGEVVEVLDSSNPSWWTGRLHNKLGLFPANYVAPMMR
B3: EPS15L1 (protein, UniProt Q60902 1-907)
chain: MAAPLVPLSQQIPGGNPLYESYYKQVDPAYTGRVGASEAALFLKKSGLSDIILGKIWDLADPEGKGFLDKQGFYVALRLVACAQSGHEVTLSSLSLTMPPPKFHDTSSPLMATQSSAETHWAVRVEEKAKFDGIFESLLPVNGLLSGDKVKPVLMNSKLPLDVLGRVWDLSDIDKDGHLDRDEFAVAMHLVYRALEKEPVPSILPPPLIPPSKRKKTVFAGAVPVLPASPPPKDSLRSTPSHGSVSSLNSTGSLSPKHSVKQPPVAWVVPVADKMRFDEIFLKTDLDLDGYVSGQEVKEIFMHSGLTQNLLAHIWALADTRQTGKLSKEQFALAMYFIQQKVSKGIDPPQVLSPDMVPPSERGTPIPDSSSTLASGEFTGVKELDDISQEIAQLQREKYSLEQDIREKEEAIRQKTSEVQELQNDLDRETSSLQELEAQKQDAQDRLDEMDQQKAKLRDMLSDVRQKCQDETQTISSLKTQIQSQESDLKSQEDDLNRAKSELNRLQQEETQLEQSIQAGRAQLETILRSLKCTQDDINQARSKLSQLQESHLEAHRSLEQYDQVPDGVSGTSLPDLATLNEGILLAERGGFGAMDDPFKNKALLFSNNSQELHPDPFQAEDPFKSDPFKGADPFKGDPFQSDPFSEQQTAATDPFGGDPFKESDPFHSSSSDDFFKKQTKNDPFTSDPFTKNPSLPSKLDPFESSDPFSSSSISSKGSDPFGTLDPFGSSSFSSAEGFADFSQMSKPPPSGPFSSSLGGTGFSDDPFKSKQDTPALPPKKPAPPRPKPPSGQSTPVSQLGSSDFPESPDPFQPLGADSGDPFQNKKGFGDPFSGKDPFAPSSSAKPPKTSSSGFADFTSFGNEEQQLAWAKRESEKAEQERLARLRRQEQEDLELAIALSKADMPA
B4: LAT (protein, UniProt O54957 1-242)
chain: MEADALSPVGLGLLLLPFLVTLLAALCVRCRELPVSYDSTSTESLYPRSILIKPPQITVPRTPAVSYPLVTSFPPLRQPDLLPIPRSPQPLGGSHRMPSSQQNSDDANSVASYENQEPACKNVDADEDEDDYPNGYLVVLPDSSPAAVPVVSSAPVPSNPDLGDSAFSVESCEDYVNVPESEESAEASLDGSREYVNVSPEQQPVTRAELASVNSQEVEDEGEEEGVDGEEAPDYENLQELN
B5: LAX1 (protein, UniProt Q8BHB3 1-407)
chain: MYSTPAPPEVTRRNSEPSTRQGTLGSLQGEKGQIIFPGFVVLLTIILVIIAACILWSWKKQKKRPVPYFQVAPSLTLPPPRHRAKNIYDFLPRQQTELGRHQLSGFSTESLLSRASDSPEPEAPQANGSLQMHRVSVHTVEYSVNIYDNGTVPQMCRHLASSTHHVCVRTSRSNPSISSKESNDYVNIPTVEDTCETLTRIESTPENHLGLPSALRLEFAEGGHAGCGNATDHDGFWAPGPKCSDSLSDGDDLSQTSNDYVNMTGLDLENIQENRPRGAFQCCRDYENVPWVDTNESQLPTLEEVASSTVDHREPVWRTLSSVYHMAFQPSAQSEDSAMVHREEQSSEDSSDYETVLVAELEGRDWKQGPGTQHPSDEGTPGDLAGKLCEVVYPAGSLATETSDEDA
B6: CD5 (receptor, UniProt P13379 24-494)
chain: QSGRGGLDIQVMLSGSNSKCQGQVEIQMENKWKTVCSSSWRLSQDHSKNAQQASAVCKQLRCGDPLALGPFPSLNRPQNQVFCQGSPWSISNCNNTSSQDQCLPLSLICLEPQRTTPPPTTTPPTTVPEPTAPPRLQLVPGHEGLRCTGVVEFYNGSWGGTILYKAKDRPLGLGNLICKSLQCGSFLTHLSGTEAAGTPAPAELRDPRPLPIRWEAPNGSCVSLQQCFQKTTAQEGGQALTVICSDFQPKVQSRLVGGSSVCEGIAEVRQRSQWEALCDSSAARGRGRWEELCREQQCGDLISFHTVDADKTSPGFLCAQEKLSQCYHLQKKKHCNKRVFVTCQDPNPAGLAPGTVASIILTLVLLVVLLAMCGPLVYKKLVKKFRQKKQRQWIGPTGVNQNMSFHRSHTATVRSQVENPTASHVDNEYSQPPRNSHLSAYPALEGALHRSSTQPDNSSDSDYDLQVAQRL
B7: ANKRD13A (protein, UniProt Q80UP5 1-588)
chain: MSSARDTSSRFPLHLLVWNNDYEQLEKELRDQNAEALDPRGRTLLHLAVSLGHLESARVLLRHKADVTKENGQGWTVLHEAVSTGDPEMVYTVLQHRDYHNTSMALEGVPELLHKILEAPDFYVQMKWEFTSWVPLVSRICPNDVCRIWKSGAKLRVDITLLGFENMSWIRGRRSFIFKGGDNWAELMEVNHDDRVVTTEHFDLSQEMERLTLDLMKPKSREVERRLTSPVINTSLDTKNVAFERTKSGFWGWRTDKAEVVNGYEAKVYSVNNVSVITRIRTEHLTEEEKKRYKEDRNPLESLLGTVEHQFGAQGDLATECATVNNPTAITPDEYFDEDFDLKDRDIGRPKELTIRTQKFKATLWMCEEFPLSLVEQVIPIIDLMARTSAHFARLRDFIKLDFPPGFPVKIEIPLFHVLNARITFGNVNGCSTADESQGVEGTPAEAVSEATNFEVDQSVFEIPESYHIQDNGRNVHLQDEDYEIMQFAIQQSLLESSRSQDLSGPASNGGVSHTHSYEAQYERAIQESLLTNMEGRCPGGLSESSRFDSDLQLAMELSAKELAERELRLQEEEAELQQVLQLSLTEK

Sequences of proteins named here, by UniProt entry; tags and fusion partners are left off.
UniProt Q3TTA7: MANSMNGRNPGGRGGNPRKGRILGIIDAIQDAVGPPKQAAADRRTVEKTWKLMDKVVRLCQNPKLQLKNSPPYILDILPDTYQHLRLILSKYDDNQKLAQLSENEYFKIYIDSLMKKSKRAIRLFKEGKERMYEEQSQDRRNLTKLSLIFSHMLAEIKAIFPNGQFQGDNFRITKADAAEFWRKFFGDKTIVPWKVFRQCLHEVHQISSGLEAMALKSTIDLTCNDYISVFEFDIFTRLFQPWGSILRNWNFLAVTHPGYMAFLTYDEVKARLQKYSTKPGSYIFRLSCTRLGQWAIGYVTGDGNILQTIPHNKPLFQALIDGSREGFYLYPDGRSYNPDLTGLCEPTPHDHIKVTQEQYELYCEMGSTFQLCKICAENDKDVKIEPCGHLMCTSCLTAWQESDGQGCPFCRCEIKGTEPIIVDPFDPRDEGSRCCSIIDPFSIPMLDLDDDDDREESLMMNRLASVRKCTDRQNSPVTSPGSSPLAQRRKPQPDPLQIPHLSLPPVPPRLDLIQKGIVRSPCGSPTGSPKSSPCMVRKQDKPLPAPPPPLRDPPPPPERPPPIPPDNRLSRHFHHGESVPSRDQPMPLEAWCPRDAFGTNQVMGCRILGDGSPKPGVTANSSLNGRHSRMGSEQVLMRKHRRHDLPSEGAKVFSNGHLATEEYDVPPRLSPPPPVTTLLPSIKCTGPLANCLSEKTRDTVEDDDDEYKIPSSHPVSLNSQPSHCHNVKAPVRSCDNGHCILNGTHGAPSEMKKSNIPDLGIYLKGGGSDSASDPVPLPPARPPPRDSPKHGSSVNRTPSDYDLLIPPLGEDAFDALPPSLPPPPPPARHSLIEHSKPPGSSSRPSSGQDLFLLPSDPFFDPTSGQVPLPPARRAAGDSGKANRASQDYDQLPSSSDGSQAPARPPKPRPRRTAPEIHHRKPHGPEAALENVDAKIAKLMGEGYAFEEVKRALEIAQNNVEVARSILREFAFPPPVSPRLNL

What follows are binders tested against CBL-OST (mouse) (UniProt P22682) (assay: affinity purification with mass spectrometry; CBL-OST or CBLB-OST captured on Strep-Tactin Sepharose (1.5 h, 4°C) from postnuclear lysates (n-dodecyl-β-maltoside) of short-term expanded mouse CD4+ T cells, unstimulated or 30, 120, 300, 600 s after anti-CD3 + anti-CD4 cross-linking; eluted with 2.5 mM D-biotin; label-free LC-MS/MS against wild-type cells as control).

Binder	binding
B1	binds
B2	binds
B3	binds
B4	no binding
B5	no binding
B6	binds

These binders were tested against CBLB-OST (mouse) (UniProt Q3TTA7) in the same assay as above.

Binder	binding
B1	binds
B2	binds
B3	binds
B4	binds
B5	binds
B7	binds
B6	binds
